Results are given in words; binding and its absence hold for the method and conditions named. In cells and extracts the contact can be indirect.
Target: FLAG-SQSTM1 (HeLa) (human), Q13501
Assay: co-IP
Settings: remark: other sources report otherwise

B1: endogenous ATG5 (HeLa), Q9H1Y0 1-275 (protein)
chain: MTDDKDVLRDVWFGRIPTCFTLYQDEITEREAEPYYLLLPRVSYLTLVTDKVKKHFQKVMRQEDISEIWFEYEGTPLKWHYPIGLLFDLLASSSALPWNITVHFKSFPEKDLLHCPSKDAIEAHFMSCMKEADALKHKSQVINEMQKKDHKQLWMGLQNDRFDQFWAINRKLMEYPAEENGFRYIPFRIYQTTTERPFIQKLFRPVAADGQLHTLGDLLKEVCPSAIDPEDGEKKNQVMIHGIEPMLETPLQWLSEHLSYPDNFLHISIIPQPTD
For B1, the binding was “no binding”.

Reference: publication PMC3234227
